Data source: PubChem BioAssay AID1259425 (University of Nebraska Medical Center, 2018)
Aim: 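Compare each knockdown with KSR1 silencing using changes in marker transcripts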 (primary screen). Cell system: HCT116 human colon cancer cells. Reagents: siRNA pool against human genes, 50 nM siRNA. Read-out: 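mRNA of six signature genes measured together by branched-DNA assay after 50 nM siRNA pool, blank removed, divided by geometric mean of two housekeeping genes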. Scale: BNIP3L mRNA: higher = more BNIP3L transcript after knockdown; NDRG1 mRNA: higher = more NDRG1 transcript after knockdown.
Shown is one part, drawn at random, of about 14,000 reagents. Not all columns of the deposit are shown. Not stated in the record: the time to read-out.

| gene knocked down | BNIP3L mRNA, set 1 | NDRG1 mRNA, set 1 |
| --- | --- | --- |
| GRIA4 | 0.0999 | 0.123 |
| RAB1A | 0.0571 | 0.141 |
| H2BC8 | 0.144 | 0.603 |
| MSANTD2 | 0.234 | 0.464 |
| CDC42SE1 | 0.0367 | 0.15 |
| MED8 | 0.143 | 1.04 |
| BARX1 | 0.0803 | 0.691 |
| PCDH19 | 0.156 | 0.177 |

Entries listed so far whose gene name starts with M or m:
| gene knocked down | BNIP3L mRNA, set 1 | NDRG1 mRNA, set 1 |
| --- | --- | --- |
| MSANTD2 | 0.234 | 0.464 |
| MED8 | 0.143 | 1.04 |

Further reagents:
| gene knocked down | BNIP3L mRNA, set 1 | NDRG1 mRNA, set 1 |
| --- | --- | --- |
| NXF5 | 0.119 | 0.179 |
| GBA2 | 0.179 | 0.198 |
| NCEH1 | 0.0655 | 0.0589 |
| STX5 | 0.188 | 0.348 |
| POLR2A | 0.146 | 0.254 |
| JHY | 0.142 | 0.13 |
| AFTPH | 0.217 | 0.174 |
| PTDSS2 | 0.145 | 0.144 |
| ZDHHC4 | 0.13 | 0.233 |
| TCTN2 | 0.114 | 0.158 |
| UBE2W | 0.0982 | 0.123 |
| ST18 | 0.0991 | 0.122 |
